# Data published in paper PMC7468131.
# Chains of the proteins cited; added tags and fusions are not shown. Residues count along the entry.
# UniProt Q13586, residues 23-685: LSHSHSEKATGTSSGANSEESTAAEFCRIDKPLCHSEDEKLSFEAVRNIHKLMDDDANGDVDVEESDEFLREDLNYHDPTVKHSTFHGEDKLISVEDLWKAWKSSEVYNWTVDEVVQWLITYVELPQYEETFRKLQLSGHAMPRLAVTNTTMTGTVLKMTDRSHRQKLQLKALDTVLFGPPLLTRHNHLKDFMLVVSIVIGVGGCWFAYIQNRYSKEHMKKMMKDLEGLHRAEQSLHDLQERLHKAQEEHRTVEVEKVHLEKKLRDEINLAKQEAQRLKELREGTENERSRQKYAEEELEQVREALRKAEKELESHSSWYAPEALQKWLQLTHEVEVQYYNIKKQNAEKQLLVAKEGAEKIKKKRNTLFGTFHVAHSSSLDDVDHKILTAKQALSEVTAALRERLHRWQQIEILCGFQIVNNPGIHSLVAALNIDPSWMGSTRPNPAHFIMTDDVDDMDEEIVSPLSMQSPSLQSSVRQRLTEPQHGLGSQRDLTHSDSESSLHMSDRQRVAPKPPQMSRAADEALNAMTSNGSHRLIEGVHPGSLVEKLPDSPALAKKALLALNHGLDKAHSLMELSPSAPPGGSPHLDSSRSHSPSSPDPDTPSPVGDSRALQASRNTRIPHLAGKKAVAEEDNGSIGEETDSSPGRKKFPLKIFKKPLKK
# UniProt Q9P246, residues 15-746: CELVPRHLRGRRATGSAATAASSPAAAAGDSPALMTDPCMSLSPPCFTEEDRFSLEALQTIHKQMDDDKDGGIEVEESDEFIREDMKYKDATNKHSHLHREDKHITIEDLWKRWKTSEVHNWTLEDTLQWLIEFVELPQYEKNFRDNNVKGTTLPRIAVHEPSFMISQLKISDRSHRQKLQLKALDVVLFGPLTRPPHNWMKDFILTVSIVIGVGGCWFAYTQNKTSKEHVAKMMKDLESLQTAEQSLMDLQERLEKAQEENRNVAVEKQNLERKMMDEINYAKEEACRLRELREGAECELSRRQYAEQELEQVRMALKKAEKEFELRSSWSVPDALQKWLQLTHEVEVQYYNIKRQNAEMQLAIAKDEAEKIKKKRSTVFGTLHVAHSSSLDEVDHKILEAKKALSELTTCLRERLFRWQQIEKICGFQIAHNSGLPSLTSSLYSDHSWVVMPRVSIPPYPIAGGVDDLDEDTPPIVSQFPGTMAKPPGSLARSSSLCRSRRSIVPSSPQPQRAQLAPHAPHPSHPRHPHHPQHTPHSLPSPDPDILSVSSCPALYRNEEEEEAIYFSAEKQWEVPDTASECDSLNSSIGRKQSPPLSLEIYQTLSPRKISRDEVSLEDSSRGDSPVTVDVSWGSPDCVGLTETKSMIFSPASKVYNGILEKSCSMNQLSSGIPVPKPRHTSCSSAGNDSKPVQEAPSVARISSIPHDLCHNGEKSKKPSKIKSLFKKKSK
# These are yes or no findings as the source states them, for the method shown. In cells and extracts the contact can be indirect. A yes stands for co-enrichment or nearness to the bait. Other partners may have been found.
# Molecular target: FLAG-tagged STIM1 (stromal interaction molecule 1), stably expressed in HeLa cells (UniProt Q13586)
# Assay: affinity purification with mass spectrometry; HeLa cells stably expressing low levels of FLAG-tagged STIM1; crosslinking, glycerol gradient fractionation, anti-FLAG resin, elution with FLAG peptide, SDS-PAGE bands analysed by nLC-MS/MS
substance,measurement,value
"STIM2, endogenous in HeLa cells (from UniProt Q9P246 15-746)",binding,binds
